For nine molecules, binding results are on record in paper PMC7594087.

Sequences of proteins named here, by UniProt entry; tags and fusion partners are left off. A change or cut given only in a name is not applied to a line headed by its entry.
UniProt Q6P5Z2: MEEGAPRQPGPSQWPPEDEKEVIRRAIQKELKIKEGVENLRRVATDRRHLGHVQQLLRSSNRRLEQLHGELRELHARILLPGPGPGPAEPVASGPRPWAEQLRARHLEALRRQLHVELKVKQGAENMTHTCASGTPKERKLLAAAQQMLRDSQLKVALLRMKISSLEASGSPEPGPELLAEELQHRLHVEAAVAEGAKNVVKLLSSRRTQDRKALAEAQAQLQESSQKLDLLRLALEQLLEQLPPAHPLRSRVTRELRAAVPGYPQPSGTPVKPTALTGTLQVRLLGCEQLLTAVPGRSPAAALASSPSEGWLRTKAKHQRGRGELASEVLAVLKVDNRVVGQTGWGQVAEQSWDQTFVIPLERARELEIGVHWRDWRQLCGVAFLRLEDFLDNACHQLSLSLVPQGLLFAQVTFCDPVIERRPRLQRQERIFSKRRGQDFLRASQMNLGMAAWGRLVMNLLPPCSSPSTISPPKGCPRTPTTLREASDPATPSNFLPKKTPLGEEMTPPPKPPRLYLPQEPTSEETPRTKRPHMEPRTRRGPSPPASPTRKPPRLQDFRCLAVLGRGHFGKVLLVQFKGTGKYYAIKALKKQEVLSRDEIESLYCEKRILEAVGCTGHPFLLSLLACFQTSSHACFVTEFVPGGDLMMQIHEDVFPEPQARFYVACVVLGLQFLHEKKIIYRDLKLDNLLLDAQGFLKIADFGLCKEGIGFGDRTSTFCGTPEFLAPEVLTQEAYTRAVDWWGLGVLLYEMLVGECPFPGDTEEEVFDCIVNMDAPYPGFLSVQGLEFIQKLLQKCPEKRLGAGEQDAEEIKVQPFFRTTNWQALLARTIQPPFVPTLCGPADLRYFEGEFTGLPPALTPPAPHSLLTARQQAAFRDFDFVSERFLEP
UniProt P61586: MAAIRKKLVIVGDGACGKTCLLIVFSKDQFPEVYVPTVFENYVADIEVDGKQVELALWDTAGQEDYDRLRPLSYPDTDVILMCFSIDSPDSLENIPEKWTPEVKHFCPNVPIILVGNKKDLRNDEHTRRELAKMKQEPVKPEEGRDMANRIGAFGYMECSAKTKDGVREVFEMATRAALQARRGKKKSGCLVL

Numbering of substitutions follows the chain as printed. Results are given in words; binding and its absence hold for the method and conditions named. Binding seen in cells or lysates may run through a third protein. Some results given as binding are weak or reduced against the parent protein; the word gives no strength. Tags and fused reporters may be left off the sequences shown.

One assay concerns the target T1, GST-ARHGAP18 N50 (human) (UniProt Q8N392).
T1 sequence: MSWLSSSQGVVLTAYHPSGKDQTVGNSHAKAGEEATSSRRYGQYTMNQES
Briefly: pull-down; GST only or GST-ARHGAP18 N50 as bait, GFP-PKN3 detected by immunoblot; GST-fused proteins stained with Ponceau S; only the target purified.

Assay [1] addresses Flag-PKN3 WT (protein kinase N3) (human) (UniProt Q6P5Z2). In words: co-IP; Flag-PKN3 precipitated with Anti-Flag Affinity Gel from lysates of transfected MDA-MB-231 cells (1% Triton X-100 in TBS, 50 mM Tris-HCl pH 7.1, 150 mM NaCl), 3 h, 4 °C; GFP-ARHGAP18 variants detected by immunoblot.
Assay [2] has as its target GST-RhoA CA (G14V), constitutively active RhoA (UniProt P61586). Briefly: pull-down; agarose-bound GST-RhoA CA (G14V), 15 μg, added to lysates of cells transfected with GFP-ARHGAP18 variants (HBS, 1% Triton X-100, 5 mM MgCl2, 1 mM DTT), 1 h, 4 °C; lysates equalized for GFP signal; only the target purified.

Turning to “GFP-PKN3 (from UniProt Q6P5Z2 1-889) (enzyme)”, the binding entry in the assay with GST-ARHGAP18 N50 (human) is recorded as “binds”.

B1: GFP-ARHGAP18 Δ201-323 (protein, UniProt Q8N392)
chain: MSWLSSSQGVVLTAYHPSGKDQTVGNSHAKAGEEATSSRRYGQYTMNQESTTIKVMEKPPFDRSISQDSLDELSMEDYWIELENIKKSSENSQEDQEVVVVKEPDEGELEEEWLKEAGLSNLFGESAGDPQESIVFLSTLTRTQAAAVQKRVETVSQTLRKKNKQYQIPDVRDIFAQQRESKETAPGGTESQSLRTNENKVPLTALLEQDQRKVPGMRIPLIFQKLISRIEERGLETEGLLRIPGAAIRIKNLCQELEAKFYEGTFNWESVKQHDAASLLKLFIRELPQPLLSVEYLKAFQAVQNLPTKKQQLQALNLLVILLPDANRDTLKALLEFLQRVIDNKEKNKMTVMNVAMVMAPNLFMCHALGLKSSEQREFVMAAGTANTMHLLIKYQKLLWTIPKFIVNQVRKQNTENHKKDKRAMKKLLKKMAYDREKYEKQDKSTNDADVPQGVIRVQAPHLSKVSMAIQLTEELKASDVLARFLSQESGVAQTLKKGEVFLYEIGGNIGERCLDDDTYMKDLYQLNPNAEWVIKSKPL
Regarding B1, the binding entry in assay [1] is recorded as “binds”.

B2: GFP-ARHGAP18 N200 (domain or fragment, UniProt Q8N392 1-200)
chain: MSWLSSSQGVVLTAYHPSGKDQTVGNSHAKAGEEATSSRRYGQYTMNQESTTIKVMEKPPFDRSISQDSLDELSMEDYWIELENIKKSSENSQEDQEVVVVKEPDEGELEEEWLKEAGLSNLFGESAGDPQESIVFLSTLTRTQAAAVQKRVETVSQTLRKKNKQYQIPDVRDIFAQQRESKETAPGGTESQSLRTNENK
B2: in assay [1], the binding result is “binds”.

B3: GFP-ARHGAP18 N200 Δ1–12 (domain or fragment, UniProt Q8N392 13-200)
chain: TAYHPSGKDQTVGNSHAKAGEEATSSRRYGQYTMNQESTTIKVMEKPPFDRSISQDSLDELSMEDYWIELENIKKSSENSQEDQEVVVVKEPDEGELEEEWLKEAGLSNLFGESAGDPQESIVFLSTLTRTQAAAVQKRVETVSQTLRKKNKQYQIPDVRDIFAQQRESKETAPGGTESQSLRTNENK
For B3, the binding entry in assay [1] was “binds weakly”.

B4: GFP-ARHGAP18 Iso2 TST-DDD (protein, UniProt Q8N392 46-663)
chain: MNQESTTIKVMEKPPFDRSISQDSLDELSMEDYWIELENIKKSSENSQEDQEVVVVKEPDEGELEEEWLKEAGLSNLFGESAGDPQESIVFLSTLTRTQAAAVQKRVEDVDQDLRKKNKQYQIPDVRDIFAQQRESKETAPGGTESQSLRTNENKYQGRDDEASNLVGEEKLIPPEETPAPETDINLEVSFAEQALNQKESSKEKIQKSKGDDATLPSFRLPKDKTGTTRIGDLAPQDMKKVCHLALIELTALYDVLGIELKQQKAVKIKTKDSGLFCVPLTALLEQDQRKVPGMRIPLIFQKLISRIEERGLETEGLLRIPGAAIRIKNLCQELEAKFYEGTFNWESVKQHDAASLLKLFIRELPQPLLSVEYLKAFQAVQNLPTKKQQLQALNLLVILLPDANRDTLKALLEFLQRVIDNKEKNKMTVMNVAMVMAPNLFMCHALGLKSSEQREFVMAAGTANTMHLLIKYQKLLWTIPKFIVNQVRKQNTENHKKDKRAMKKLLKKMAYDREKYEKQDKSTNDADVPQGVIRVQAPHLSKVSMAIQLTEELKASDVLARFLSQESGVAQTLKKGEVFLYEIGGNIGERCLDDDTYMKDLYQLNPNAEWVIKSKPL
B4: in assay [2], the binding entry is “binds”.

B5: GFP-ARHGAP18 Iso2 WT (isoform 2) (protein, UniProt Q8N392 46-663)
chain: B4 chain with D109T, D111S, D113T
B5: the binding entry in assay [1] was “binds weakly”.

B6: GFP-ARHGAP18 WT (Rho GTPase Activating Protein 18, isoform 1, full-length) (protein, UniProt Q8N392 1-663)
chain: MSWLSSSQGVVLTAYHPSGKDQTVGNSHAKAGEEATSSRRYGQYTMNQESTTIKVMEKPPFDRSISQDSLDELSMEDYWIELENIKKSSENSQEDQEVVVVKEPDEGELEEEWLKEAGLSNLFGESAGDPQESIVFLSTLTRTQAAAVQKRVETVSQTLRKKNKQYQIPDVRDIFAQQRESKETAPGGTESQSLRTNENKYQGRDDEASNLVGEEKLIPPEETPAPETDINLEVSFAEQALNQKESSKEKIQKSKGDDATLPSFRLPKDKTGTTRIGDLAPQDMKKVCHLALIELTALYDVLGIELKQQKAVKIKTKDSGLFCVPLTALLEQDQRKVPGMRIPLIFQKLISRIEERGLETEGLLRIPGAAIRIKNLCQELEAKFYEGTFNWESVKQHDAASLLKLFIRELPQPLLSVEYLKAFQAVQNLPTKKQQLQALNLLVILLPDANRDTLKALLEFLQRVIDNKEKNKMTVMNVAMVMAPNLFMCHALGLKSSEQREFVMAAGTANTMHLLIKYQKLLWTIPKFIVNQVRKQNTENHKKDKRAMKKLLKKMAYDREKYEKQDKSTNDADVPQGVIRVQAPHLSKVSMAIQLTEELKASDVLARFLSQESGVAQTLKKGEVFLYEIGGNIGERCLDDDTYMKDLYQLNPNAEWVIKSKPL
In the case of B6, in assay [1], the binding entry is “binds”.

B7: GFP-ARHGAP18 TST-DDD (phosphomimicking mutant) (protein, UniProt Q8N392 1-663)
chain: B6 chain with T154D, S156D, T158D
As to B7, in assay [2], the binding result is listed as “binds”.

B8: GFP-ARHGAP18 N200 Δ13–25 (domain or fragment, UniProt Q8N392)
chain: MSWLSSSQGVVLNSHAKAGEEATSSRRYGQYTMNQESTTIKVMEKPPFDRSISQDSLDELSMEDYWIELENIKKSSENSQEDQEVVVVKEPDEGELEEEWLKEAGLSNLFGESAGDPQESIVFLSTLTRTQAAAVQKRVETVSQTLRKKNKQYQIPDVRDIFAQQRESKETAPGGTESQSLRTNENK
With B8, in assay [1], the binding entry is given as “binds weakly”.
